We go through one substance from publication PMC10878159.

The chains behind the UniProt entries cited, without tags or fusion partners.
UniProt P14859: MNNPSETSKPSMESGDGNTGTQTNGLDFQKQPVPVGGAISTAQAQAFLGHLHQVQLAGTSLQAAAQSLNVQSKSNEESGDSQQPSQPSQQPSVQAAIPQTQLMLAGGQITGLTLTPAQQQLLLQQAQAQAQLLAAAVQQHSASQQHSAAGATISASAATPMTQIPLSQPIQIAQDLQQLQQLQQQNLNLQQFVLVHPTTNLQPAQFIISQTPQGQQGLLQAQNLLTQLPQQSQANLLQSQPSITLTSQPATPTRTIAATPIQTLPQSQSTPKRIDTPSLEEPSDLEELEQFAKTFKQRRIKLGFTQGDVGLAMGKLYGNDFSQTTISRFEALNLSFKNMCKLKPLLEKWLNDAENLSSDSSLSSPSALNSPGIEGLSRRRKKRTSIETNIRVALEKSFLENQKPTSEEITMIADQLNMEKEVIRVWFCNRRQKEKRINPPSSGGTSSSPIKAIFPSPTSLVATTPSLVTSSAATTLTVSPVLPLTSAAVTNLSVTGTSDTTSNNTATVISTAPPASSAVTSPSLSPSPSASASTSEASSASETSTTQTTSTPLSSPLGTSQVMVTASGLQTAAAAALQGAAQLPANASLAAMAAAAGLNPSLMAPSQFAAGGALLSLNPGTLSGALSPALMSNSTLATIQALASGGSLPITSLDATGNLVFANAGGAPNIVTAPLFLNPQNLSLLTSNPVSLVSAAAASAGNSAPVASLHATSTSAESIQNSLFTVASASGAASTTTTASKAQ
UniProt P19474: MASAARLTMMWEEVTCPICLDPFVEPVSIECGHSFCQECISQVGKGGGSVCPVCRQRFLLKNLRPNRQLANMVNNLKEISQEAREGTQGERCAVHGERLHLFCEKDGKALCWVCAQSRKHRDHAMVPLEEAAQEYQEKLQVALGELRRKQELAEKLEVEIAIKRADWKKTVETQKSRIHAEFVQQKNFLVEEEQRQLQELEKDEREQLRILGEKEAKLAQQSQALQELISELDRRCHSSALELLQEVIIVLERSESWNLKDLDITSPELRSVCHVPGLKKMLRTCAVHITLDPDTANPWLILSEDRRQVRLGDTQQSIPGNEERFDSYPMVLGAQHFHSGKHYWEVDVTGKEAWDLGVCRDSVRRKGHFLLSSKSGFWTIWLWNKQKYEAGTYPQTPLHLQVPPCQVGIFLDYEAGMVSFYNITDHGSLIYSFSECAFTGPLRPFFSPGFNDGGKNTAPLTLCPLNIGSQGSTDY

These are yes or no findings as the source states them, for the method shown. In cells and extracts the contact can be indirect. Some entries that bind do so weakly or less than the wild type.

The experiment addresses POU2F1 (human (in human CRC cells)) (UniProt P14859). The experiment in a line: co-IP; in CRC cells; bait, antibodies and cell lines not told in the text shown.

TRIM21 (from UniProt P19474 1-475): the binding result is reported as “binds”.
